Data source: PubChem BioAssay AID1224830 (NIAID, 2016)
In all, the deposit lists about 18,000 reagents; shown is a part drawn at random. About 2,900 of them (16%) were called active. 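Calls are made per well; low scores hint the gene aids the LPS response, high scores that it dampens it.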 Unmarked entries are inactive. Repeated entries: four replicate wells of each siRNA pool. Reagent sequences are not shown.

Aim: 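Regulators of TLR4 signalling towards TNF-alpha in macrophage-like cells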 (primary screen)
Cells: human THP-1 monocytic leukaemia cells, TNF dual-luciferase reporter clone, PMA-differentiated to macrophage-like cells
Reagent: siRNA pool against human genes, 50 nM
Duration: LPS for 4 h, given about 3 days after siRNA transfection
Treatment: bacterial LPS (TLR4 ligand), 10 ng/ml
Detection: 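TNF firefly reporter luminescence divided by renilla, normalised to the plate median, then turned into a robust z-score for each replicate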
Direction: TNF reporter robust z-score: higher = stronger TNF reporter response to LPS
Call rule: 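a well is active when its z-score exceeds 2.8 or falls below -1.5; control wells carry no call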

The opening 11 records as a preview:
gene	TNF reporter robust z-score
TMEM225	2.07
TMEM225	-0.51
TMEM225	-1.54 (active)
TMEM225	-0.76
KRTAP5-7	-0.26
KRTAP5-7	-1.06
KRTAP5-7	-0.9
KRTAP5-7	-0.33
RPL22	0.72
RPL22	1.02
RPL22	-0.13

The list itself, from the start:
gene	TNF reporter robust z-score
TMEM225	2.07
TMEM225	-0.51
TMEM225	-1.54 (active)
TMEM225	-0.76
KRTAP5-7	-0.26
KRTAP5-7	-1.06
KRTAP5-7	-0.9
KRTAP5-7	-0.33
RPL22	0.72
RPL22	1.02
RPL22	-0.13
RPL22	0.52
PATE1	-0.76
PATE1	-0.12
PATE1	0.56
PATE1	0.66
CTSZ	-0.01
CTSZ	-0.14
CTSZ	0
CTSZ	-0.6
STIP1	0.04
STIP1	0.54
STIP1	0.35
STIP1	0.13
RNF148	-0.91
RNF148	-0.69
RNF148	-0.4
RNF148	0.4
ASPHD1	-1.16
ASPHD1	-0.9
ASPHD1	-0.1
ASPHD1	0.03
RNF11	-1.68 (active)
RNF11	-0.09
RNF11	1.17
RNF11	0.75
SGCG	-0.53
SGCG	0.29
SGCG	-0.88
SGCG	-0.82
EZHIP	-0.41
EZHIP	-0.06
EZHIP	0.36
EZHIP	-0.76
CALR	-0.59
CALR	-1.08
CALR	-0.87
CALR	-0.81
ADGRE3	-0.5
ADGRE3	0.44
ADGRE3	0.13
ADGRE3	-1.29
PEDS1	-0.76
PEDS1	-1.03
PEDS1	-0.57
PEDS1	-0.99
APPL2	2.41
APPL2	2.93 (active)
APPL2	0.53
APPL2	0.81
RPL23AP82	0.21
RPL23AP82	0.28
RPL23AP82	0.66
RPL23AP82	-0.55
TEX101	-0.13
TEX101	1.48
TEX101	-0.28
TEX101	-0.14
LILRB5	-1.01
LILRB5	-0.11
LILRB5	-0.25
LILRB5	0.3
CACNA2D3	0.62
CACNA2D3	-0.72
CACNA2D3	-0.28
CACNA2D3	-0.38
RPL15	-0.17
RPL15	0.32
RPL15	1.16
RPL15	0.37
PGLYRP3	-2.01 (active)
PGLYRP3	-2.12 (active)
PGLYRP3	-1.58 (active)
PGLYRP3	-1.56 (active)
GYS1	0.09
GYS1	-0.83
GYS1	0.48
GYS1	-0.42
N4BP2L2	-0.78
N4BP2L2	-0.83
N4BP2L2	3.71 (active)
N4BP2L2	-0.48
LAMC2	-0.1
LAMC2	0.15
LAMC2	-0.08
LAMC2	1.07
RPL7A	1.34
RPL7A	0.95
RPL7A	0.25
RPL7A	-0.14
SAXO5	-1.14
SAXO5	-1.55 (active)
SAXO5	-1.69 (active)
SAXO5	-1.37
NDUFA7	-0.44
NDUFA7	0.68
NDUFA7	0.12
NDUFA7	0.66
GH1	0.95
GH1	1.69
GH1	-0.11
GH1	-1.4
PCIF1	1
PCIF1	1.01
PCIF1	1.39
SEC11A	0.39
SEC11A	-0.33
SEC11A	-0.86
SEC11A	0.43
DSP	-0.53
DSP	-0.81
DSP	-1.43
DSP	-0.4
COL4A6	-0.27
COL4A6	0.27
COL4A6	0.51
COL4A6	0.15
ZNF326	0.14
ZNF326	-0.57
ZNF326	-0.02
ZNF326	-0.26
CSNK1G2	-0.4
CSNK1G2	0.39
CSNK1G2	0.07
CSNK1G2	0.1
HJV	0.21
HJV	0.34
HJV	-0.39
HJV	-0.71
LOXL2	-1.74 (active)
LOXL2	-1.21
LOXL2	-1.6 (active)
LOXL2	-1.24
